The text below walks through data of publication PMC4474554 (PLoS ONE, 2015).

The assay concerns PC-9. Description: MTS assay, PC-9. As to conditions: Homo sapiens, PC-9, read-out: each IC50. (Formazan colour is commonly taken as a measure of viable cells.)

As for `COc1cc2ncnc(Nc3ccc(F)c(Cl)c3)c2cc1OCCCN1CCOCC1` [Gefitinib, gefitinib, reference compound], the IC50 (usually the concentration that gives 50% inhibition) was 3.1 nM.
